# Source: article PMC10191551, “Safety, Tolerability, and Pharmacokinetics of Oral Ferric Maltol in Children With Iron Deficiency: Phase 1 Study” (JPGN Reports, 2021)
# Experiment: Phase 1 study: safety and tolerability (adverse events, vital signs, ECG, laboratory tests, compliance) of oral ferric maltol
smiles,measurement,setting,value
Cc1occc(=O)c1[O-].Cc1occc(=O)c1[O-].Cc1occc(=O)c1[O-].[Fe+3] [Ferric maltol],Mean study drug compliance,7.8 mg dose group,98%
same,Mean study drug compliance,16.6 mg dose group,86%
same,Mean study drug compliance,30 mg dose group,98%
